For at least one compound, name, drawing or mass did not settle the structure.
Assay: Stability study at 25° C./60% RH, 40° C./75% RH and 60° C. (XRPD, HPLC purity, impurity tracking)
Conditions: 25° C./60% RH (open vial), number = sodium salt XRPD Pattern, * Traces of Pattern 2
Description: Stability of HBI-3808 Sodium Salt Pattern 2 was studied over 13 weeks.
Table 2F presents impurity tracking results from a 13-week stability study of HBI-3808 sodium salt of Pattern 2. […]

Measured: XRPD

CC1CCC2(C(=O)[O-])CCC3(C)C(=CCC4C5(C)CC(O)C(O)C(C)(CO)C5CCC43C)C2C1(C)O.[Na+] (stereo not shown) [HBI-3808 sodium salt of Pattern 2, sodium salt of 23-hydroxytormentic acid]
5 *: 2 Weeks | 4 Weeks | 8 Weeks | 13 Weeks
